Laboratory results as given in PubChem BioAssay AID540256 (National Center for Advancing Translational Sciences (NCATS), 2011).
Out of some 300,000 compounds screened, about 3,700 (1.2%) were called active. This list was built around the results that the source calls inconclusive (neither active nor inactive); the mix of calls is not that of the screen. The call rests on the fitted dose curve; tested in HEK293 cells. Where the call is inconclusive, the potency comes from a doubtful curve fit.

experiment: qHTS for Inhibitors of binding or entry into cells for Lassa Virus; settings: Lassa virus pseudotype entry inhibition, cell reporter; series mostly up to 37.9 µM; further: nearly all actives have a fitted effect of over 50% in size
Potency means the concentration at half of the fitted maximal effect.

| Compound | Potency |
| --- | --- |
| O=C(Cn1c(SCC(=O)N2CCCc3ccccc32)nc2ccccc21)N1CCCC1 | inconclusive: 1.83 µM [inhibitor, partial curve, poor fit] |
| Cc1ccc(NS(=O)(=O)c2cc(C(=O)N3CCc4ccccc4C3)ccc2Cl)cc1 | inconclusive: 13 µM [inhibitor, single point] |
| CCOc1ccc(-c2nnc(Nc3ccc(S(N)(=O)=O)cc3)c3ccccc23)cc1 | inactive |
| CCCCc1nc(N2CCOCC2)c(C#N)c2c1CCCC2 | inconclusive: 11.2 µM [inhibitor, single point] |
| Cc1[nH]c2c(Cl)cccc2c1CCNC(=O)C1CCCCC1C(=O)OCC(F)(F)F (configuration not stated) | inconclusive: 5.62 µM [inhibitor, partial curve, poor fit] |
| Cc1nc(N)nc(N)c1CCCc1ccc(Cl)c(Cl)c1 | inconclusive: 10 µM [inhibitor, partial curve, poor fit] |
| CCOC(=O)CSc1nc2ccccc2n2cnnc12 | inactive |
| c1ccc(NCc2ccccn2)cc1 | inconclusive: 25.9 µM [activator, single point] |
| CCCCSc1nc2ccccc2[nH]1 | inconclusive: 20.6 µM [activator, partial curve, poor fit] |
| COc1ccc(NC(=O)c2noc3c2CCCC3)cc1Cl | inconclusive: 20 µM [activator, partial curve, poor fit] |
| CC(=O)N1CCc2cc(S(=O)(=O)CCC(=O)N3CCN(c4cccc(C)c4C)CC3)ccc21 | inactive |
| COc1cccc(C(=O)Nc2ccc(N3CCCC3)cc2)c1 | inconclusive: 10 µM [inhibitor, partial curve, poor fit] |
| CC(=O)c1cc2c(cc1NS(=O)(=O)c1ccccc1Br)OCO2 | inconclusive: 35.5 µM [inhibitor, partial curve, poor fit] |
| Cc1cccc(NC(=O)c2c(C)oc3ncn(CC(C)C)c(=O)c23)n1 | inactive |
| COc1ccc(N(CC(=O)N/N=C/c2cccc3c2OCCO3)S(=O)(=O)c2ccc(NC(C)=O)cc2)cc1 | inconclusive: 22.4 µM [inhibitor, single point] |
| Cc1sc2nc(C3CC3)nc(SCC(=O)N3CCCc4ccccc43)c2c1C | inconclusive: 7.31 µM [inhibitor, single point] |
| Cc1cccc2cc(C#N)c(SCC(=O)N3CC(=O)Nc4ccccc43)nc12 | inconclusive: 3.98 µM [inhibitor, partial curve, poor fit] |
| c1ccc(-c2nnsc2-c2ncc[nH]2)cc1 | inactive |
| O=C(CN1C2=NCCCN2c2ccccc21)c1cccc(Br)c1 | inconclusive: 3.98 µM [activator, single point] |
| N=c1c2ccccc2nnn1-c1ccc(C(F)(F)F)cc1 | inactive |
| COc1cccc(/C=C2\N=C(c3c(-c4ccccc4)noc3C)OC2=O)c1 | inactive |
| O=C(Cc1coc2ccc3ccccc3c12)N1CCCC1 | inconclusive: 0.794 µM [inhibitor, partial curve, poor fit] |
| Cc1cc(C)c(S(=O)(=O)Nc2ccc3c(c2)CCC3)c(C)c1 | inconclusive: 29.1 µM [inhibitor, single point] |

A draw from above in order of number of heavy atoms, low to high.

| Compound | Potency |
| --- | --- |
| c1ccc(-c2nnsc2-c2ncc[nH]2)cc1 | inactive |
| N=c1c2ccccc2nnn1-c1ccc(C(F)(F)F)cc1 | inactive |
| CCOc1ccc(-c2nnc(Nc3ccc(S(N)(=O)=O)cc3)c3ccccc23)cc1 | inactive |

Looked up above.
Value for c1ccc(-c2nnsc2-c2ncc[nH]2)cc1 under Potency: inactive
Value for Cc1cccc(NC(=O)c2c(C)oc3ncn(CC(C)C)c(=O)c23)n1 under Potency: inactive

(listing goes on)

| Compound | Potency |
| --- | --- |
| C=C1CC2(CC(c3ccccc3)OC(c3ccccc3)C2)OC1=O (configuration not stated) | inconclusive: 35.5 µM [inhibitor, single point] |
| O=C(c1cc(COc2ccc(F)cc2Cl)on1)N1CCN(C2CCCCC2)C(=O)C1 | inconclusive: 7.94 µM [inhibitor, partial curve, poor fit] |
| COc1ccc(C(=O)/C=C/c2ccc(OC3CSC3)cc2)cc1OC | inconclusive: 35.5 µM [inhibitor, single point] |
| COc1cccc(C2C=C(c3ccc(C)c(C)c3)Nc3nnnn32)c1OC (configuration not stated) | inconclusive: 6.31 µM [inhibitor, partial curve, poor fit] |
| Cc1cc(Cl)ccc1OCc1n[nH]c(=S)n1C1CCCCC1 | inconclusive: 13 µM [inhibitor, partial curve, poor fit] |
| CCn1c(SCC(=O)N2c3ccccc3CCc3ccccc32)nnc1-c1ccc(OC)cc1 | inactive |
| CN(C(=O)COC(=O)CSc1cc(Cl)ccc1Cl)c1c(N)n(Cc2ccccc2)c(=O)[nH]c1=O | inactive |
| COc1cc(OC)c(OC)cc1/C=C1\CCC/C(=C\c2cc(OC)c(OC)cc2OC)C1=O | inconclusive: 10 µM [inhibitor, partial curve, poor fit] |
| CC(C)c1ccc(NC2CCCN(C(=O)CCN3CCCC3=O)C2)cc1 (configuration not stated) | inconclusive: 5.62 µM [activator, partial curve, poor fit] |
| COc1ccc(CC(=O)Nc2cccc(-c3cn4ccccc4n3)c2)cc1 | inconclusive: 29.1 µM [inhibitor, single point] |
| CCOC(=O)c1ccc(Nc2nc3ccccc3nc2NS(=O)(=O)c2ccc(Cl)cc2)cc1 | inactive |
| CCN1CCN(CCCNC(=O)c2cnn(-c3ccccc3)c2C2CCN(C(=O)OC(C)(C)C)CC2)CC1 | inactive |
| c1ccc2c(CSc3nnc(-c4ccncc4)o3)cccc2c1 | inconclusive: 2.59 µM [activator, full curve, poor fit] |
| COc1ccc(NC(=O)c2cc3c(=O)n(Cc4ccco4)ccc3nc2C)cc1 | inconclusive: 25.1 µM [inhibitor, single point] |
| COc1ccccc1OCC(=O)Nc1cc(C)ccc1NC(=O)c1ccco1 | inactive |
| c1ccc(COc2ccc(OCCCN3CCCCC3)cc2)cc1 | inconclusive: 29.1 µM [inhibitor, single point] |
| OCCN1CCN(C(=S)NCCc2ccccc2)CC1 | inconclusive: 7.94 µM [activator, partial curve, poor fit] |
| Cc1cc2ccccn2c1C(=O)c1cccc([N+](=O)[O-])c1 | inconclusive: 35.5 µM [inhibitor, single point] |
| COc1ccc(CN2C(=O)C(O)(CC(=O)c3ccc4c(c3)OCO4)c3ccccc32)cc1OC (configuration not stated) | inconclusive: 0.461 µM [inhibitor, full curve, poor fit] |
| CCN1C(=O)/C(=C/c2ccc(OC)c(OC)c2)N=C1SCC(=O)NCc1ccco1 | inactive |
| Cc1ccc(CSCC(=O)N2CCN(c3ccccc3)CC2)cc1 | inconclusive: 29.1 µM [inhibitor, single point] |
| C=CCn1c(N2CCN(c3ccc(OC)cc3)CC2)nc2c1c(=O)[nH]c(=O)n2C | inconclusive: 2.24 µM [inhibitor, full curve] |
| CCOC(=O)c1cccc(NC(=O)/C=C/c2cccc([N+](=O)[O-])c2)c1 | inactive |

| Compound | Potency |
| --- | --- |
| CN(C)/C=N/C(=S)Nc1ccc(Br)cc1F | inconclusive: 2.51 µM [activator, full curve] |
| Cc1ccc(C2(c3ccccc3)NC(=O)N(CC(=O)NC3CCCCC3)C2=O)cc1C (configuration not stated) | inconclusive: 10 µM [inhibitor, partial curve, poor fit] |
| C=CCOc1ccc(/C=N/N2C(=O)C(CC(=O)Nc3ccc(F)cc3F)SC2=NC)cc1 (configuration not stated) | inconclusive: 28.2 µM [inhibitor, single point] |
| CC(C)=CCN1CCN(Cc2ccoc2)CC1CCO (configuration not stated) | inconclusive: 3.16 µM [inhibitor, single point] |
| COc1ccc(S(=O)(=O)N2CCc3ccccc32)cc1C(=O)NCc1ccco1 | inconclusive: 10 µM [inhibitor, partial curve] |
| Cc1ccc2c(c1)/C(=C/c1ccccc1C)C(=O)N2 | inconclusive: 1 µM [inhibitor, full curve, poor fit] |
| Cc1ccc(NC(=S)N2CCSC2c2cccs2)cc1 (configuration not stated) | inactive |
| Cc1cc(S(=O)(=O)N(Cc2cccs2)Cc2ccccc2F)ccc1-n1cnnn1 | inconclusive: 35.5 µM [inhibitor, single point] |
| COc1ccc(CCC(=O)N2CCc3c([nH]c4ccccc34)C2c2ccc(F)cc2)cc1 (configuration not stated) | inconclusive: 5.62 µM [inhibitor, full curve] |
| COc1ccc(-c2cc(C(=O)Nc3cccnc3Cl)no2)cc1OC | inconclusive: 1.41 µM [inhibitor, partial curve, poor fit] |
| O=C(NCCc1ccccc1)c1ccc(CS(=O)(=O)c2ccc(Br)cc2)o1 | inactive |
| CC[n+]1c(/C=C/c2ccc(N(C)C)cc2)ccc2ccccc21 | active: 9.2 µM |
| Cc1[nH]c2ccc(OC(F)(F)F)cc2c1CCNCc1ccc(Cl)cc1 | inconclusive: 11.2 µM [inhibitor, partial curve, poor fit] |
| O=C(Nc1cccc(Cl)c1)c1csc(-c2ccccc2)n1 | inactive |
| Cc1cc2nn(-c3ccccc3)nc2cc1NC(=O)c1cccc2c(Cl)cccc12 | inactive |
| COc1ccc(N(CC(=O)N/N=C/c2cccs2)S(=O)(=O)c2ccccc2)cc1 | inconclusive: 22.4 µM [inhibitor, single point] |
| O=C1CSC2(C(=O)N(Cc3ccccc3F)c3ccccc32)N1c1ccc(F)cc1 (configuration not stated) | inactive |
| CCN1C(=O)C(CC(=O)Nc2ccc(Br)cc2)N(CCCc2ccccc2)C1=S (configuration not stated) | active: 12.6 µM |
| Cc1ccc(-n2c(/C=C/c3cc(Br)cs3)nc3ccccc3c2=O)cc1 | inconclusive: 10 µM [inhibitor, partial curve] |
| c1csc(-c2ccc3ccccc3n2)c1 | inconclusive: 12.6 µM [activator, partial curve, poor fit] |
| c1ccc2c(c1)OCCOCCOCCOCCOCCOc1ccccc1OCCOCCOCCO2 | inconclusive: 29.1 µM [inhibitor, single point] |
